This passage reports binding results from paper PMC10879544.

Sequences of proteins named here, by UniProt entry; tags and fusion partners are left off. A change or cut given only in a name is not applied to a line headed by its entry. Residues count along the entry.
UniProt Q9Z2G6, residues 22-790: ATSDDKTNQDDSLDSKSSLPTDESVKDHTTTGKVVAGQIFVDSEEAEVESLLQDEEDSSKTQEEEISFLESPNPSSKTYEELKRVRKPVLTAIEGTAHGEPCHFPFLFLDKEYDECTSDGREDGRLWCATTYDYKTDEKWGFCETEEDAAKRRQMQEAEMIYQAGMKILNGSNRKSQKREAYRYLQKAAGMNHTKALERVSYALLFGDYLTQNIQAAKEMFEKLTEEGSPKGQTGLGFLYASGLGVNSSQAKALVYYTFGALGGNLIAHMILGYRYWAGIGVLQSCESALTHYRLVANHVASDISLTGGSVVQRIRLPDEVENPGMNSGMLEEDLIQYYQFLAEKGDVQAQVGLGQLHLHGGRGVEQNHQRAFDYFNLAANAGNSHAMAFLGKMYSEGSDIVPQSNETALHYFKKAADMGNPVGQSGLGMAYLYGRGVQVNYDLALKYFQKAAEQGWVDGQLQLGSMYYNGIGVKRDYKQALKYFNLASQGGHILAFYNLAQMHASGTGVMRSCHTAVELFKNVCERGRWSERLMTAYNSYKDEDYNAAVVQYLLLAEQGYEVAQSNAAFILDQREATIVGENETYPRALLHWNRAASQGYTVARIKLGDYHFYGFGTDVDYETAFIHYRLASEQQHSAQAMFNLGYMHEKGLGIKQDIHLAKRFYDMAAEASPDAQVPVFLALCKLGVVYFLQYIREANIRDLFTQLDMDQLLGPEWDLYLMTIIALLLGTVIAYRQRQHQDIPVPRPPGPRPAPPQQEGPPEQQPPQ
UniProt P02454: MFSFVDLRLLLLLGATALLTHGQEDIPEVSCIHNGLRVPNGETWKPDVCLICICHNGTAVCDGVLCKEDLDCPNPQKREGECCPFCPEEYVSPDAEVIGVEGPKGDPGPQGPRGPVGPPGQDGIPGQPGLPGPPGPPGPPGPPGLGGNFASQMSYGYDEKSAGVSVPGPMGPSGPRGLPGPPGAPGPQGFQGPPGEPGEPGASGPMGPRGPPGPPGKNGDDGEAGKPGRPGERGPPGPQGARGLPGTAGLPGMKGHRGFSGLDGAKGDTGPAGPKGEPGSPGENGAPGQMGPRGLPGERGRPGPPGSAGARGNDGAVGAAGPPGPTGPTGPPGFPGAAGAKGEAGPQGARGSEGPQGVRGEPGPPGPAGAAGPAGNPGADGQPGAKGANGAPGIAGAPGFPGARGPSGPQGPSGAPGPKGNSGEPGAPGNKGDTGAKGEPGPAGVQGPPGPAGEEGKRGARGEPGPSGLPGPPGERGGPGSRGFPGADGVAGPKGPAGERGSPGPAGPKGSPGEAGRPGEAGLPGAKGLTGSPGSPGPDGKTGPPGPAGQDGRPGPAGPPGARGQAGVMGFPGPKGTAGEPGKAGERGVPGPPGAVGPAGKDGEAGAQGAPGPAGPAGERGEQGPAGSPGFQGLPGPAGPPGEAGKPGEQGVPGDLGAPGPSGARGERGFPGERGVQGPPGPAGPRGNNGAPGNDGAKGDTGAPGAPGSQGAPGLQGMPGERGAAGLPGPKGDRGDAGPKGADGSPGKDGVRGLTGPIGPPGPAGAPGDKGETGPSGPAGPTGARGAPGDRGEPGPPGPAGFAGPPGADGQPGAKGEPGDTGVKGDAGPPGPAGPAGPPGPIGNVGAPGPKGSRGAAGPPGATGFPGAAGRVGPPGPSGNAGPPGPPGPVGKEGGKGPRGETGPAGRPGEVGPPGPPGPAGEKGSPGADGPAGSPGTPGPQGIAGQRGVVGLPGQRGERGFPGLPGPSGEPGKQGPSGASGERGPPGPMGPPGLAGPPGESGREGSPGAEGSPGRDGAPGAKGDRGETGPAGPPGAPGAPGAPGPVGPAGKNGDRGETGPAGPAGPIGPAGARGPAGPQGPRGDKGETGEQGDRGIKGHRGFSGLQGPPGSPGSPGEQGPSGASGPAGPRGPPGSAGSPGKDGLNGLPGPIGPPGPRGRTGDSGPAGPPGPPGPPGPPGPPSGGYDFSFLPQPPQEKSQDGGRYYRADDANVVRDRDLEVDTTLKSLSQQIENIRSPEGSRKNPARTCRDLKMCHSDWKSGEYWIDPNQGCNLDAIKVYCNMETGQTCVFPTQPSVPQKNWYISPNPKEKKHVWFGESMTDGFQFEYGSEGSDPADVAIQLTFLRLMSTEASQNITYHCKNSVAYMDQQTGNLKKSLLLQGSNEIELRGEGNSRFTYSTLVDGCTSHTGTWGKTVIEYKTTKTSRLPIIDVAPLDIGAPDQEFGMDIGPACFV

The target of experiment [1] is WT SEL1L (full length murine SEL1L with C-terminal MYC and FLAG tags) (mouse) (UniProt Q9Z2G6). Description: co-IP; WT or ΔFN2 SEL1L purified with anti-FLAG magnetic agarose (improved purity, not complete) incubated with rat tail collagen, then co-IP via anti-MYC; cell-free; both purified.
The target is the same in experiment [2]. Description: co-IP; WT or ΔFN2 SEL1L purified with Myc-trap agarose (purity not complete) incubated with rat tail collagen, then co-IP; cell-free; both purified.

No constants are given. Whether binding was seen depends on the method and setting. Some binding calls cover weakened binding; strength is not graded here.

Take “rat tail collagen (EMD Millipore) (from UniProt P02454 152-1207; P02466 86-1125) (complex)”: the binding result in experiment [1] and in experiment [2] was “binds” throughout.
